# Library screening results

By UniProt entry, the sequences of proteins in these tests, tags left out.
UniProt E9BF75, entry or part of it: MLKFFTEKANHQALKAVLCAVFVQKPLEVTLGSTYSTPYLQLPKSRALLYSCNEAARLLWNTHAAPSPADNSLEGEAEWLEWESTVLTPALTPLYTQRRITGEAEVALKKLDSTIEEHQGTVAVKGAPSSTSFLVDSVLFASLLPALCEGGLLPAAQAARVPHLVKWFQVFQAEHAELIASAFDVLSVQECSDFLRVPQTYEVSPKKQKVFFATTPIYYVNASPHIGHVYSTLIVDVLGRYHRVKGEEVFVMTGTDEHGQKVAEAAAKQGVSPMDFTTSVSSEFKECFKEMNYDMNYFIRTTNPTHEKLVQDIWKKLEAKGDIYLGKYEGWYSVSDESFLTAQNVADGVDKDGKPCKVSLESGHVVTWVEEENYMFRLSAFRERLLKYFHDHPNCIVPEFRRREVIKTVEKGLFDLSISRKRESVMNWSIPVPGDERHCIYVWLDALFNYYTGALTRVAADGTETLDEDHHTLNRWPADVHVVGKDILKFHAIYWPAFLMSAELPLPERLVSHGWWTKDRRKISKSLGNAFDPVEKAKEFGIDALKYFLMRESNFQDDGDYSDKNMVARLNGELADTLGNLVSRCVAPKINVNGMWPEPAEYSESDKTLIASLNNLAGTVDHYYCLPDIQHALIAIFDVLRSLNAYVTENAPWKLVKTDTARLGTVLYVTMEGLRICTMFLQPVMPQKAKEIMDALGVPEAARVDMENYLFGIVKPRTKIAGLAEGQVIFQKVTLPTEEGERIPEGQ

A: 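Primary screen of methionyl-tRNA synthetase; the read-out is not stated. Target: Methionyl-tRNA synthetase (putative), Leishmania donovani (UniProt E9BF75). The test concentration is not given. Values are per cent inhibition. Of about 68,000 compounds tested this way, about 24 (0.035%) reached 50% or more in at least one test.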
B: 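Assay on Mycobacterium tuberculosis, filed only as a heat shock assay from Cornell; the read-out is not stated. The concentration is filed as 10 mM, unlikely as a test dose, so the dose is not known. Direction is inferred from retests: higher values go with stronger inhibition. About 69,000 compounds were tested under these conditions; 1.4% (about 930) showed 50% or more at least once.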

All values are in %.
How 0% and 100% were set is not recorded. Most values in the screen are low, and negative values occur.
This is an unselected part of the compounds tested.
A dash means the value is not listed here; it may have been measured.

compound,A,B
Cc1ccc(Cl)cc1NC(=O)Nc1c[nH]c(=O)[nH]c1=O,12.66,7.386
Cc1nccn1CCCC(=O)N1CCC2(CCC(=O)N(C(C)C)C2)CC1,17.48,5.554
Cn1cnnc1C1CCN(C(=O)c2cc3c(s2)CCC3)CC1,13.97,49.59
Cc1ccc(CN2CCC3(CC2)C(=O)Nc2ccccc23)s1.O=C(O)C(F)(F)F,-,0.7618
CCc1nc(C)c(CN2CCN(c3ncnc4scc(C)c34)CC2)[nH]1,7.216,-14.4
CCCc1cncnc1N1CCC(NCCc2ccc(O)cc2)CC1,9.749,-27.46
Cc1ccc(CNC(=O)C2=NOC3(CCCNC3)C2)cc1 (stereo unspecified),1.307,-33.46
CCCc1cc(C(=O)NC(c2ccccc2)c2n[nH]c(C)n2)[nH]n1 (stereo unspecified),14.49,5.99
Cc1nc(NC(=O)CN2CCc3c(nc(C(C)C)n3C)C2)sc1C,10.51,1.637
Cc1nc(CN2CCOC(CN(C)c3cccnn3)C2)cs1 (stereo unspecified),4.861,-3.234
COc1ccc(-c2nc(CN3CCN(CCO)CC3)co2)cc1,-1.215,-18.11
c1ccc(CN2C[C@H]3CCC[C@@]3(COCC3CC3)C2)nc1,9.343,-
OCCn1cc(CN2CCN(CCOc3ccccc3)CC2)cn1,11.11,5.327
CC(CNCC1(S(C)(=O)=O)CCOCC1)c1ccc(F)cc1 (stereo unspecified),5.707,-12.02
O=C1COC2(CCN(Cc3ccncc3)CC2)CN1,17.58,-
CCc1ccc(CNC(=O)Cn2ccc3sccc3c2=O)cc1,8.527,0.8159
CN1C(=O)CC(N(C)Cc2nc3ccccc3c(=O)[nH]2)C1=O (stereo unspecified),-3.064,15.14
O=C(COc1cccc(F)c1)N1C[C@@H](CN2CCCC2)C[C@H](CO)C1,10.44,5.334
CCN1CCC2(CC1)CC(NCc1ccncc1)c1ccccc1O2 (stereo unspecified),17.58,-
O=C(O)C(F)(F)F.O=C1CC(c2ccncc2)C2(CCN(C(=O)c3ccc[nH]3)CC2)N1 (stereo unspecified),-,-1.267
c1csc(-c2nc(CN3CCCCC3Cn3cncn3)cs2)c1 (stereo unspecified),20,-11.45
COc1ccc(-c2nc(CN3CC(n4cccn4)C3)no2)cc1,12.26,-15.06
Cc1cc(C)c2c(OCC(=O)NCC(O)C(F)(F)F)nn(C)c2n1 (stereo unspecified),13.2,16.1
CCc1nc(CN2CCCN(C(=O)CCc3ccco3)CC2)cs1,20.14,14.15
O=C1CC2(CCN(Cc3ccsc3)C2)CN1c1ccc2c(c1)OCO2 (stereo unspecified),-1.307,5.202
CC(=O)N1CCO[C@@H]2CN(S(=O)(=O)c3ccc(C)cc3)CC[C@@H]2C1,6.011,-
CN(C(=O)Cc1ccccc1Cl)C1CCN(c2ccccn2)CC1,22.25,-12.08
CNC(=O)c1cn[nH]c1C1CCN(Cc2ccccc2OC)C1 (stereo unspecified),17.42,-17.28
CNC(=O)[C@@H](C1CCCCC1)N1CCC[C@H]1C(=O)NCCN1CCCC1.Cl.Cl,-,-32.17
Cn1cc2ncn(CCCOc3cccnc3)c(=O)c2n1,10.2,-29.95
Cc1cc(NCCCOC(C)C)c2nncn2n1,-0.2513,-6.879
Cc1cc(C)n(CCCNC(=O)[C@@H](C)NC(=O)OC(C)(C)C)n1,16.2,3.139
O=C(C1CCOC1)N1C[C@H]2CN(c3ccccc3)C(=O)[C@H]2C1 (stereo partly specified),5.842,-
CCc1noc(C(C)N(C)Cc2ccc(OC)c(OC)c2)n1 (stereo unspecified),4.467,-17.28
CN1[C@H](CN2CCCC2)C[C@@H]2CN(C(=O)Cc3ccsc3)CC[C@@H]21,6.731,-
O=S(=O)(c1cccs1)N1CC[C@@H](O)[C@@H]1Cc1ccncc1,6.032,-
O=C(c1ccccn1)N1C[C@@H]2CC[C@H](C1)N(C(=O)CCC1CCCC1)C2,10.7,-
Fc1cnc(N2CCCn3c(nnc3Cn3cccc3)C2)nc1.O=C(O)C(F)(F)F,-,24.04
CCN(CC)C(=O)Cc1csc(C(C)C)n1,2.419,-11.15
Cc1nc(NCc2nncn2C2CC2)c2c(CC(C)C)csc2n1,12.7,4.988
CCCSc1ncccc1C(=O)NCc1ccc(N(C)C)cc1,1.944,3.987
Cc1cc(C(=O)CN(Cc2cccnc2)CC2CCCO2)c(C)[nH]1 (stereo unspecified),8.58,11.96
COCCO[C@@H]1C[C@H]2CN(C(=O)c3ccc(C)nc3)CCN2C1,11.3,-
[H][C@@]12CCN(Cc3cccnc3OC)[C@]1([H])CC[C@H](c1nnc(C)o1)O2,-,0.06407
Cc1ncnc2c1CCN(C(=O)Cc1cccc(F)c1)CC2,20.65,-17.51
CCN1CCC(c2nc3ccc(NC4CCC4)cn3n2)CC1,12.9,-
O=C(O)C(F)(F)F.O=C(O)C(F)(F)F.O=C(O)C(F)(F)F.[H][C@@]12CN(Cc3ccncc3)C[C@]1([H])[C@H](OC)CCN2Cc1cccs1,-,42.16
Cc1ccc2nc(CN3CCCC3c3cccnc3)cc(O)c2c1 (stereo unspecified),21.56,-20.05
Cc1cc(C)c(CNC(=O)NCC2CCCN2C)c(=O)[nH]1 (stereo unspecified),5.102,-0.08919
CCC(CNC(=O)Nc1cnn(CC)c1)N1CCCC1 (stereo unspecified),7.981,20.87
COC(C)(C)C(=O)NCC1CCN(Cc2cc3ccccc3[nH]2)C1 (stereo unspecified),18.1,19.97
O=C(O)c1cccc(C2CCCN(S(=O)(=O)C3CC3)C2)c1 (stereo unspecified),7.117,4.13
Cn1ccnc(Sc2cccc(C#N)c2)c1=O,8.871,-24.14
Cc1cc(S(=O)(=O)NC(=O)CCc2cccnc2)c(C)s1,14.78,-30.21
CCc1nc(CN2CCCN(CC(=O)N3CCOCC3)CC2)no1,18.23,-6.118
COc1cc(NC2CCS(=O)(=O)CC2)ncn1,19.23,17.3
COc1ccc(OCCN(C)S(=O)(=O)N2CCOCC2)cc1,10.86,-3.641
COCCNS(=O)(=O)c1ccc(Cl)c(C(=O)N(C)Cc2sccc2C)c1,4.935,-0.7878
CC(C)NC(=O)N1CCC2(CCCO2)C1 (stereo unspecified),6.767,-23.12
CC(=O)N1CCCC2(CCC(=O)N2Cc2cccnc2)C1.O=C(O)C(F)(F)F (stereo unspecified),-,-17.29
O=C(Cc1ccon1)NC1CCCN(c2ccccc2F)C1=O (stereo unspecified),6.192,0.3655
Cc1cnn(CCNCC(=O)NC2(C#N)CCCC2)c1,12.24,-10.17
COC(=O)COn1c(SC)nc2ccccc2c1=O,5.831,8.916
Cc1nn(C(C)C)c(C)c1NC(=O)c1cccnc1,13.48,-0.4625
[H][C@@]12CN(C(=O)c3ccc(C)nc3)C[C@]1([H])OCCN2CC1CCCC1,-,16.09
CS(=O)(=O)N1CCc2ccc(=O)n(CCN3CCCC3)c2CC1,8.197,-
CN(CC(=O)N1CCOCC(CO)C1)Cc1ccccn1 (stereo unspecified),14.83,2.142
CCC(CO)n1cnc2scc(C)c2c1=O (stereo unspecified),11.29,4.514
N#Cc1ccccc1C(=O)N1C[C@@H](CN2CCCCCC2)[C@@H](CO)C1,9.677,-27
COCCCN1CC2(CCCN(CCn3cc(Cl)cn3)C2)CCC1=O (stereo unspecified),13.62,-21
CCOCC1CN(S(C)(=O)=O)Cc2cnn(C)c21 (stereo unspecified),9.623,5.256
COCCNC(=O)CN1CCN(c2nc(C)cs2)CC1,16.19,-6.849
O=C1CC(c2ccncc2)C2(CCN(C(=O)c3cccs3)CC2)N1 (stereo unspecified),2.857,-
NCCn1cc(C(=O)N2CCCCCC2c2cccc(F)c2)nn1 (stereo unspecified),4.737,-9.28
COCC1CN(Cc2cnn(C)c2)Cc2nn(C)cc21.O=C(O)C(F)(F)F (stereo unspecified),-,-8.537
COc1cccnc1NC(=O)COc1ccc(F)cc1F,16.3,-19.64
Cc1noc(C)c1-c1cc(CCC2CN(CCC(N)=O)CCO2)ncn1 (stereo unspecified),16.56,-1.976
CC1CCCCN1C1CN(C(=O)c2sccc2S(N)(=O)=O)C1 (stereo unspecified),6.516,-37.69
CC(C)C(C)NC(=O)CNc1cc2c(cc1Cl)NC(=O)CO2 (stereo unspecified),3.655,14.93
O=C(c1ccnc(N2CCOC(C(F)(F)F)C2)c1)N1CCCC1 (stereo unspecified),4.301,14.05

The first 8 entries again:

{"compound": "Cc1ccc(Cl)cc1NC(=O)Nc1c[nH]c(=O)[nH]c1=O", "A": 12.66, "B": 7.386}
{"compound": "Cc1nccn1CCCC(=O)N1CCC2(CCC(=O)N(C(C)C)C2)CC1", "A": 17.48, "B": 5.554}
{"compound": "Cn1cnnc1C1CCN(C(=O)c2cc3c(s2)CCC3)CC1", "A": 13.97, "B": 49.59}
{"compound": "Cc1ccc(CN2CCC3(CC2)C(=O)Nc2ccccc23)s1.O=C(O)C(F)(F)F", "B": 0.7618}
{"compound": "CCc1nc(C)c(CN2CCN(c3ncnc4scc(C)c34)CC2)[nH]1", "A": 7.216, "B": -14.4}
{"compound": "CCCc1cncnc1N1CCC(NCCc2ccc(O)cc2)CC1", "A": 9.749, "B": -27.46}
{"compound": "Cc1ccc(CNC(=O)C2=NOC3(CCCNC3)C2)cc1", "stereo": "stereo unspecified", "A": 1.307, "B": -33.46}
{"compound": "CCCc1cc(C(=O)NC(c2ccccc2)c2n[nH]c(C)n2)[nH]n1", "stereo": "stereo unspecified", "A": 14.49, "B": 5.99}

From ChEMBL document CHEMBL3988442, “University of Dundee, Small-Polar-MMV Screening Library” (2021).